Assay results from article PMC7083216.
No constants are given. Whether binding was seen depends on the method and setting. In cells and extracts the contact can be indirect. Some binding calls cover weakened binding; strength is not graded here. Blank lines part the entries; values can stand above or below the substance they belong to.

Protein sequences, listed by entry. Tags and fused reporters are not part of them. Lines headed by an entry give the natural chain unless they say otherwise; changes in a name come on top.
UniProt P14416: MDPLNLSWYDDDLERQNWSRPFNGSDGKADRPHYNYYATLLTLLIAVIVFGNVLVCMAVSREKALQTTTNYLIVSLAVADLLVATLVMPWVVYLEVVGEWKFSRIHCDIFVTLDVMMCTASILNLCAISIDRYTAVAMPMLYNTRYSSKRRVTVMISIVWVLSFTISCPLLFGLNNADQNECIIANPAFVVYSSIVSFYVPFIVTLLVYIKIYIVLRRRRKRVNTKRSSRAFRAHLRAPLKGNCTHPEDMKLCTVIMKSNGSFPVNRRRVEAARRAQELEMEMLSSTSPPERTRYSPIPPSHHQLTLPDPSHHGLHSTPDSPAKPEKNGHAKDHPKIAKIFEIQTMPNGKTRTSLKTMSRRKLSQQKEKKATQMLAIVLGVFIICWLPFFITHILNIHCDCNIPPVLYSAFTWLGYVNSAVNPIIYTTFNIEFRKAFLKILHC

Columns and labels:
M1R-YFP = M1R-YFP (UniProt P11229); test: FRET or BRET; BRET1 saturation in HEK293T cell suspensions in HBSS; constant pD2R-Rluc (200 ng), increasing pM1R-YFP or pEYFP (0-1,000 ng); 5 uM h-coelenterazine; 48 h after transfection
M1R-LgBiT (human) = M1R-LgBiT (human) (UniProt P11229); test: split reporter; NanoBiT in HEK293T cell suspensions in HBSS; 200 ng of each construct; furimazine; luminescence normalised to co-transfected Venus fluorescence; 48 h after transfection
[1] = molecular target: HA-M1R (muscarinic acetylcholine M1 receptor) (UniProt P11229); test: co-IP; HEK293T co-transfected with pFLAG-D2R and pHA-M1R, 48 h; membrane pellet lysed in RIPA buffer; immunoprecipitation with mouse anti-HA and Protein-A resin at 4°C; blot with rabbit anti-FLAG
[2] = molecular target: HA-M1R (muscarinic acetylcholine M1 receptor) (UniProt P11229); test: condition: only extracts of separately transfected cells mixed; co-IP; extract mix of HEK293T cells transfected separately with FLAG-D2R or HA-M1R; immunoprecipitation with anti-HA; blot with anti-FLAG

- binding (M1R-YFP): binds
Substance: D2R-Rluc (from UniProt P14416 1-443) (receptor)

- binding (M1R-LgBiT (human)): binds
Substance: D2R-SmBiT (from UniProt P14416 1-443) (receptor)

- binding [1]: binds
- binding [2]: no binding
Substance: FLAG-D2R (dopamine D2 receptor) (from UniProt P14416 1-443)
